# Measurements taken from PubChem BioAssay AID308 (DTP/NCI, 2004).
# The list is a part of this screen's results and no random one: it is rich in T/C values a quarter to a half above the control, in often repeated tests (any T/C) and in doses without a T/C. Other doses and runs of a compound stand elsewhere. T/C is the treated group as % of the vehicle group. Some entries give survivors of the animals treated and no T/C: the source holds a T/C of zero for them, seemingly a mark for toxic or unscored doses. Some survivor counts are full or nearly so, which does not show that the dose was tolerated: survival well below the control is almost never listed, so the zero probably covers shortened survival too. Counts of survivors are from the toxicity check (mostly the fifth day) where no day follows; animals may have died later. Schedules are NCI's codes, read here as Q, the interval in days (D) or hours (H), X, the number of doses. Some schedules carry Z or #; the key to these is not given. For survival time, the PubChem record calls one and a half times the control and up active, and a quarter to a half above the control has no call in these data; cut-offs in other NCI protocols can differ. Some T/C values are followed by the survivors on the day toxicity was checked, most often the fifth; where none is given, no animal had died by that day.
# Test system: BDF1 mice, L1210 6-MP/6-TG resistant leukemia ip, survival T/C
# Test: NCI In Vivo Anticancer Drug Screen. Data for tumor model L1210 Leukemia resistant to 6-MP and 6-Thioguanine; NSC 755, NSC 752 (intraperitoneal) in B6D2F1 (BDF1) mice
# Settings: T/C endpoint: mean survival time, higher T/C = longer survival
# Protocol: The antitumor activity of compounds was measured in mice bearing transplantable tumors. Survival or tumor size were measured and the results are expressed as the measurement made in the treated group (T) divided by the measurement made in the vehicle treated control group (C). The tumor model used in this assay is L1210 Leukemia resistant to 6-MP and 6-Thioguanine; NSC 755, NSC 752 (intraperitoneal) in B6D2F1 (BDF1) mice
# [1] = dose: 200.0 mg/kg/injection, schedule: Q01DX Z (ip), vehicle: saline
# [2] = dose: 200.0 mg/kg/injection, schedule: Q01DX Z (ip), vehicle: other
# [3] = dose: 125.0 mg/kg/injection, schedule: Q01DX Z (ip), vehicle: saline
# [4] = dose: 250.0 mg/kg/injection, schedule: Q01DX Z (ip), vehicle: saline
# [5] = dose: 25.0 mg/kg/injection, schedule: Q01DX Z (ip), vehicle: carboxymethylcellulose (CMC)
# [6] = dose: 37.5 mg/kg/injection, schedule: Q01DX Z (ip), vehicle: carboxymethylcellulose (CMC)
compound,measurement,setting,value
O=P1(N(CCCl)CCCl)NCCCO1 (stereo not given),T/C,"dose: 18.0 mg/kg/injection, schedule: Q01DX Z (ip), vehicle: saline",126 % of control
same,T/C,"dose: 25.0 mg/kg/injection, schedule: Q01DX Z (ip), vehicle: saline",137 % of control
same,T/C,"dose: 50.0 mg/kg/injection, schedule: Q01DX Z (ip), vehicle: saline",145 % of control
same,survivor count,[1],6 of 6
same,survivor count,"dose: 400.0 mg/kg/injection, schedule: Q01DX Z (ip), vehicle: saline",0 of 6
O=C(OCC1OC(n2cnc3c(=S)nc[nH]c32)C(OC(=O)c2ccc([N+](=O)[O-])cc2)C1OC(=O)c1ccc([N+](=O)[O-])cc1)c1ccc([N+](=O)[O-])cc1 (stereo not given),survivor count,"dose: 37.5 mg/kg/injection, schedule: Q01DX015 (ip), vehicle: other",6 of 6
same,survivor count,"dose: 100.0 mg/kg/injection, schedule: Q01DX Z (ip), vehicle: other",7 of 7
same,survivor count,[2],7 of 7
CCOC(=O)Sc1ncnc2nc[nH]c12,survivor count,"dose: 112.0 mg/kg/injection, schedule: Q01DX Z (ip), vehicle: saline",10 of 10
C[N+](C)(C)c1ncnc2nc[nH]c12,survivor count,"dose: 180.0 mg/kg/injection, schedule: Q01DX Z (ip), vehicle: saline",10 of 10
same,survivor count,[1],6 of 6
same,survivor count,"dose: 300.0 mg/kg/injection, schedule: Q01DX Z (ip), vehicle: saline",4 of 6
COc1cc2c(c3c1c(=O)c1ccccc1n3C)C=CC(C)(C)O2,T/C,"dose: 60.0 mg/kg/injection, schedule: Q01DX015 (ip), vehicle: carboxymethylcellulose (CMC)",126 % of control
same,T/C,"dose: 80.0 mg/kg/injection, schedule: Q01DX015 (ip), vehicle: carboxymethylcellulose (CMC)",128 % of control
[N-]=[N+]=CC(=O)NCC(=O)NN,T/C,[3],125 % of control [5 of 6 alive]
same,T/C,[4],138 % of control
same,T/C,"dose: 500.0 mg/kg/injection, schedule: Q01DX Z (ip), vehicle: saline",132 % of control
O=c1cnn(C2OC(CO)C(O)C2O)c(=O)[nH]1 (stereo not given),T/C,[3],127 % of control
same,T/C,[4],127 % of control
CCn1cnc2c(=S)nc[nH]c21,survivor count,"dose: 18.75 mg/kg/injection, schedule: Q01DX Z (ip), vehicle: carboxymethylcellulose (CMC)",6 of 6
same,survivor count,[5],6 of 6
same,survivor count,[6],6 of 6
same,survivor count,"dose: 200.0 mg/kg/injection, schedule: Q01DX Z (ip), vehicle: carboxymethylcellulose (CMC)",6 of 6
CCCC(=O)OCC1OC(n2cnc3c(=S)nc[nH]c32)C(OC(=O)CCC)C1OC(=O)CCC (stereo not given),survivor count,"dose: 37.5 mg/kg/injection, schedule: Q01DX Z (ip), vehicle: other",9 of 10
same,survivor count,"dose: 200.0 mg/kg/injection, schedule: Q01DX009 (ip), vehicle: Klucel (hydroxypropylcellulose) (HPC)",10 of 10
same,survivor count,[2],6 of 7
same,survivor count,"dose: 400.0 mg/kg/injection, schedule: Q01DX009 (ip), vehicle: Klucel (hydroxypropylcellulose) (HPC)",7 of 10
CN(C)c1ccc(/C=C\c2ccnc3ccccc23)cc1,survivor count,[5],6 of 6
same,survivor count,[6],6 of 6
same,survivor count,"dose: 50.0 mg/kg/injection, schedule: Q01DX Z (ip), vehicle: carboxymethylcellulose (CMC)",6 of 6
same,survivor count,"dose: 75.0 mg/kg/injection, schedule: Q01DX Z (ip), vehicle: carboxymethylcellulose (CMC)",5 of 6
CCSc1nc(Cl)cc(Sc2nc(N)nc3nc[nH]c23)n1,survivor count,"dose: 31.0 mg/kg/injection, schedule: Q01DX Z (ip), vehicle: other",6 of 7
same,survivor count,"dose: 62.0 mg/kg/injection, schedule: Q01DX Z (ip), vehicle: other",6 of 7
same,survivor count,"dose: 125.0 mg/kg/injection, schedule: Q01DX Z (ip), vehicle: other",6 of 6
same,survivor count,"dose: 250.0 mg/kg/injection, schedule: Q01DX Z (ip), vehicle: other",5 of 6
same,survivor count,"dose: 500.0 mg/kg/injection, schedule: Q01DX Z (ip), vehicle: other",6 of 6
same,survivor count,"dose: 1000.0 mg/kg/injection, schedule: Q01DX Z (ip), vehicle: other",3 of 6
On1cnc(=S)c2[nH]cnc21,survivor count,"dose: 750.0 mg/kg/injection, schedule: Q01DX015 (ip), vehicle: carboxymethylcellulose (CMC)",6 of 6
same,survivor count,"dose: 1000.0 mg/kg/injection, schedule: Q01DX015 (ip), vehicle: carboxymethylcellulose (CMC)",2 of 6
OCn1cnc2c(SC3CCCC3)ncnc21,survivor count,"dose: 6.25 mg/kg/injection, schedule: Q01DX009 (ip), vehicle: other",6 of 6
same,survivor count,"dose: 25.0 mg/kg/injection, schedule: Q01DX009 (ip), vehicle: other",6 of 6
same,survivor count,"dose: 100.0 mg/kg/injection, schedule: Q01DX009 (ip), vehicle: other",9 of 9
same,survivor count,"dose: 200.0 mg/kg/injection, schedule: Q01DX009 (ip), vehicle: other",8 of 10
same,survivor count,"dose: 400.0 mg/kg/injection, schedule: Q01DX009 (ip), vehicle: other",0 of 10
O=C(O)c1cc[c]([Hg][S]c2ncnc3nc[nH]c23)cc1,survivor count,"dose: 50.0 mg/kg/injection, schedule: Q01DX015 (ip), vehicle: carboxymethylcellulose (CMC)",3 of 6
O=C(Nc1ccc(C2=NCCN2)cc1)c1cccc(C(=O)Nc2ccc(C3=NCCN3)cc2)c1,T/C,"dose: 5.0 mg/kg/injection, schedule: Q01DX Z (ip), vehicle: water",143 % of control
same,T/C,"dose: 25.0 mg/kg/injection, schedule: Q01DX Z (ip), vehicle: water",131 % of control
same,survivor count,"dose: 50.0 mg/kg/injection, schedule: Q01DX Z (ip), vehicle: water",5 of 6
same,survivor count,"dose: 75.0 mg/kg/injection, schedule: Q01DX Z (ip), vehicle: water",4 of 6
same,survivor count,"dose: 100.0 mg/kg/injection, schedule: Q01DX Z (ip), vehicle: water",4 of 6
